# According to PubChem BioAssay AID2551 (National Center for Advancing Translational Sciences (NCATS), 2010):
# Sequences of proteins named here, by UniProt entry; tags and fusion partners are left off. A change or cut given only in a name is not applied to a line headed by its entry.
# UniProt P51450: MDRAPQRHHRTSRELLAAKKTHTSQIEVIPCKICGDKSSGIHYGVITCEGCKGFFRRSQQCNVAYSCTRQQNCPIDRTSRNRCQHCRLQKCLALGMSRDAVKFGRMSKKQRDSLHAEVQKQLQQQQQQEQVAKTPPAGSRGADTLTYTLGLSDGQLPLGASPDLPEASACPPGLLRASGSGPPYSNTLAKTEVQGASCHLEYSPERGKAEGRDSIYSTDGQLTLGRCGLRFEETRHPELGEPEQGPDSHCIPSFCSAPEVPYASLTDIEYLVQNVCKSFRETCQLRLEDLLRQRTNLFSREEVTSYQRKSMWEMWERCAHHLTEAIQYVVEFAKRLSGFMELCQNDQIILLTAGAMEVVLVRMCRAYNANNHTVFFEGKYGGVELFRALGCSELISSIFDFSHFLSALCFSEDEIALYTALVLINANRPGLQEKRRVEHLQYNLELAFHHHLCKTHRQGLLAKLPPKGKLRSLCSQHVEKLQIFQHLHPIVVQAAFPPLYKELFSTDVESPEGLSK
# Among all 310,000 compounds or so, about 17,000 (5.5%) were called active. The inconclusive results got no clear call from the source; some entries with a clear call stand among them for comparison. Calls follow the shape of the dose curve; as a rule, active = well fitted inhibition curve with a large enough effect; inconclusive = small, poorly fitted or top-dose-only effect, or effect the other way; inactive = no such curve, though single readings can be large or run the other way. A potency beside an inconclusive call is a rough fit, not a confirmed value.
# Molecular target: Nuclear receptor ROR-gamma (Mus musculus) (UniProt P51450)
# Assay: qHTS for inhibitors of ROR gamma transcriptional activity; also: nearly all actives have a fitted effect of over 60% in size
# Details: Drosophila S2 Gal4-RORgamma UAS-luciferase reporter, 20 h; series mostly up to 53.6 µM
# How it was run: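 Using a luciferase readout, inhibitors were identified by reduced reporter activity in Drosophila cells coexpressing a copper-inducible Gal4–ROR gamma fusion and UAS-driven Photinus luciferase, incubated 20 hr after 700 uM copper sulfate.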
# Potency is read from the fitted curve at half-maximal effect.
row,Compound,Potency
1,COc1ccc(NC(=S)Nc2cccc(C)n2)cc1,"inconclusive: 0.501 µM [inhibitor, full curve]"
2,Cc1nc2ncnn2c(N2CCN(c3cccc(C(F)(F)F)c3)CC2)c1C,"inconclusive: 35.5 µM [inhibitor, single point]"
3,S=c1[nH]nc(COc2ccccc2)n1/N=C/C(Cl)=C/c1ccccc1,active: 7.94 µM
4,CCc1ccc(CN(C)C(=O)c2cc(COc3ccc(-n4cncn4)cc3)on2)cc1,"inconclusive: 17.8 µM [activator, partial curve]"
5,O=C(Oc1c(CN2CCOCC2)cc(Cl)c2cccnc12)c1ccccc1Cl,active: 0.708 µM
6,COc1cccc(/C=N/Nc2cc(N3CCOCC3)ncn2)c1O,active: 11.2 µM
7,CCOC(=O)c1sc(NC(=O)c2ccccc2C(=O)O)c(C(=O)OCC)c1C,"inconclusive: 12.6 µM [activator, single point]"
8,COc1cc2cc3c(N)c(C(=O)NCc4ccco4)sc3nc2cc1OC,"inconclusive: 5.62 µM [inhibitor, single point]"
9,Cc1ccc(C(=O)NC(=S)NCC(=O)c2ccccc2)cc1,"inconclusive: 11.2 µM [inhibitor, partial curve, poor fit]"
10,COC(C(=O)N/N=C(\C)c1ccc(C(C)(C)C)cc1)c1ccccc1 (centres undefined),"inconclusive: 22.4 µM [activator, partial curve]"
11,CN(C)CCn1c(NC(=O)c2ccc(Cl)cc2)nc2ccccc21,active: 1.12 µM
12,CC(C)c1ccc(C(=O)Nc2ccc(N3CCOCC3)cc2)cc1,"inconclusive: 3.55 µM [activator, partial curve]"
13,O=C(c1ccccc1)N1N=C(c2ccccc2O)CC1c1ccccc1 (centres undefined),inactive
14,Cc1cc(/C=C(\C#N)C(=O)NC2CCCCCC2)c(C)[nH]1,inactive
15,Cc1ccc(NC(=S)NC(=O)c2ccccc2)cc1NC(=S)NC(=O)c1ccccc1,active: 1.41 µM
16,Cc1cc([N+](=O)[O-])cc(/C=N\NC(=O)C2COc3ccccc3O2)c1O (centres undefined),active: 2.24 µM
17,CC(=O)Nc1ccc(Nc2nc(C)c([N+](=O)[O-])c(N(C)c3ccccc3)n2)cc1,inactive
18,CN(c1ccc(OCC(=O)N2CCN(c3ccc(F)cc3)CC2)cc1)S(=O)(=O)c1cccs1,"inconclusive: 15.8 µM [activator, single point]"
19,Cc1cccc(C)c1NC(=O)N1CCN(c2nc3ccccc3s2)CC1,"inconclusive: 12.6 µM [activator, single point]"
20,O=C(COC(=O)c1ccccc1[N+](=O)[O-])NCCCc1ccccc1,inactive
21,Oc1ccccc1Nc1nc(NCc2ccccc2)c2ccccc2n1,"inconclusive: 35.5 µM [inhibitor, single point]"
22,CCOC(=O)c1cc2c(nc1NC(=S)Nc1ccccc1)CC(C)(CC)OC2 (centres undefined),active: 3.55 µM
23,Cc1cc(C)c2c(n1)sc1c(N3CCN(CCO)CC3)ncnc12,inactive
24,CC(C)(C)c1cc(NC(=O)NN2CCOCC2)nn1-c1c(Cl)cc(Cl)cc1Cl,"inconclusive: 20 µM [activator, partial curve, poor fit]"
25,CCOc1cc(N2CCOCC2)c(OCC)cc1NC(=O)CSc1nccc(C)n1,"inconclusive: 11.2 µM [activator, partial curve]"

row,Compound,Potency
1,N#Cc1c(Cl)cccc1Oc1ccc(S(=O)(=O)Nc2ccccc2)cc1,"inconclusive: 35.5 µM [inhibitor, single point]"
2,CCOc1ccc(CN(C(=O)c2cc3ccccc3oc2=O)C2CC2)cc1,"inconclusive: 2.24 µM [activator, partial curve, poor fit]"
3,Nc1c(-c2ccc(Cl)cc2)cnn1C1CCS(=O)(=O)C1 (centres undefined),"inconclusive: 35.5 µM [activator, single point]"
4,Fc1ccc(Cn2ccc(-c3cnc(-c4ccccc4)s3)n2)cc1,"inconclusive: 3.98 µM [activator, full curve, poor fit]"
5,COCc1cc(=O)[nH]c(Nc2nc3ccccc3o2)n1,active: 3.55 µM
6,CCc1ccc(NC(=O)Nc2ccsc2C(=O)OC)cc1,active: 8.91 µM
7,Cc1ccc(C(=O)NC(=S)NCc2ccccc2)cc1,active: 10 µM
8,NS(=O)(=O)c1ccc(NCc2ccccc2OCc2ccc(F)cc2)cc1,"inconclusive: 35.5 µM [activator, single point]"
9,COCc1cc(C)nc2sc(C(=O)Nc3nccs3)c(N)c12,"inconclusive: 35.5 µM [inhibitor, single point]"
10,Cc1cc(C(=O)N(C)CC(=O)Nc2ccc(F)c(F)c2F)no1,inactive
11,CN1CCN(c2ncc3nc(CCc4ccccc4)c(=O)n(Cc4ccc(F)cc4)c3n2)CC1,inactive
12,CCCC(=O)Nc1ccc(NC(=O)c2ccccc2F)cn1,"inconclusive: 1.26 µM [activator, partial curve]"
13,COc1cccc(-c2ccc3ncnc(NCCN4CCOCC4)c3c2)c1,"inconclusive: 12.6 µM [activator, partial curve]"
14,COc1cc(OC)c(NC(C)C(=O)NCc2ccccc2)cc1Cl (centres undefined),"inconclusive: 35.5 µM [activator, partial curve]"
15,CCn1c(CC(=O)Nc2ccc(F)cc2)nnc1SCC(=O)Nc1nncs1,"inconclusive: 0.794 µM [inhibitor, single point]"
16,COC(=O)N1C(=O)[C@@](CC(C)C)(c2ccccc2)N1C(=O)OC,"inconclusive: 5.01 µM [inhibitor, partial curve, poor fit]"
17,CN(C)c1ccc(/C=N/NC(=O)CN2CCN(c3ccc(F)cc3)CC2)cc1,inactive
18,O=C(O)CN1C(=O)/C(=C\c2ccccc2OCc2ccc(Cl)cc2Cl)SC1=S,"inconclusive: 5.62 µM [inhibitor, single point]"
19,COc1ccc(OC)c(Nc2nc(-c3sc(NC(=O)C(C)(C)C)nc3C)cs2)c1,"inconclusive: 31.6 µM [inhibitor, single point]"
20,O=C1/C(=C\c2ccc(Br)cc2)SC(=S)N1NS(=O)(=O)c1ccccc1,inactive
21,COc1cc2c(cc1OC)CN(S(=O)(=O)c1cccs1)CC2,inactive
22,CCC(=O)N/N=C(\C)CC(=O)Nc1ccc(F)cc1,"inconclusive: 35.5 µM [inhibitor, single point]"
23,CCCCOc1ccc(C(=O)N/N=C/c2ccc(OCCN3CCCCC3)c(OC)c2)cc1,"inconclusive: 35.5 µM [inhibitor, single point]"
24,O=C(NNC(=O)c1ccc(Cl)cc1Cl)c1cnccn1,"inconclusive: 31.6 µM [inhibitor, single point]"
25,COc1cc2c(cc1OC)C(c1ccc(-c3ccc(Cl)c(Cl)c3)o1)=NCC2,active: 12.6 µM

# Pulled by compound from above, five records:
row,Compound,Potency
21,COc1cc2c(cc1OC)CN(S(=O)(=O)c1cccs1)CC2,inactive
9,Cc1ccc(C(=O)NC(=S)NCC(=O)c2ccccc2)cc1,"inconclusive: 11.2 µM [inhibitor, partial curve, poor fit]"
2,CCOc1ccc(CN(C(=O)c2cc3ccccc3oc2=O)C2CC2)cc1,"inconclusive: 2.24 µM [activator, partial curve, poor fit]"
23,CCCCOc1ccc(C(=O)N/N=C/c2ccc(OCCN3CCCCC3)c(OC)c2)cc1,"inconclusive: 35.5 µM [inhibitor, single point]"
12,CCCC(=O)Nc1ccc(NC(=O)c2ccccc2F)cn1,"inconclusive: 1.26 µM [activator, partial curve]"

# Continuation:

row,Compound,Potency
1,COc1ccccc1CNc1ccc(N2CCCCC2)cc1,"inconclusive: 15.8 µM [inhibitor, single point]"
2,CCCN(CCC)S(=O)(=O)c1ccc(C(=O)N2CCC(=O)c3ccccc32)cc1,inactive
3,O=C(O)Cc1ccc(NC(=O)c2ccc(Cl)c(Cl)c2)cc1,"inconclusive: 10 µM [inhibitor, partial curve]"
4,Cc1ccc(/C(O)=C2/C(=O)C(=O)N(CCN3CCOCC3)C2c2ccccn2)cc1 (centres undefined),inactive
5,C=C1C[C@H]2[C@@H]3C=C(C)C4=CC(=O)CC[C@]4(C)[C@H]3CC[C@]2(C)[C@@]1(OC(C)=O)C(C)=O,inactive
6,COc1ccc(CCNC(=O)CCC(=O)Nc2ccccc2[N+](=O)[O-])cc1OC,inactive
7,CCC(=O)Nc1sc(C(=O)OC)c(C)c1C(=O)OC,"inconclusive: 15.8 µM [inhibitor, partial curve]"
8,Brc1cccc(-c2nnc(SCc3nc4ccccc4[nH]3)o2)c1,active: 11.2 µM
9,O=C(Nc1nnc(-c2ccc3c(c2)CCCC3)o1)C1COc2ccccc2O1 (centres undefined),active: 3.55 µM
10,CCN1C(=O)/C(=C/c2ccc(N3CCCC3)cc2)NC1=S,active: 0.794 µM
11,O=c1[nH]c(=S)[nH]c2sc3c(c12)CCCCCC3,active: 14.1 µM
12,O=C(N/N=C/c1cc([N+](=O)[O-])ccc1O)c1cccc(N2CCCC2=O)c1,active: 2.24 µM
13,COCc1nnc(NC(=O)c2ccc(S(=O)(=O)N3CCOCC3)cc2)o1,active: 11.2 µM
14,CC(C)c1ccc(/C=N/NC(=O)c2ccccc2Cl)cc1,"inconclusive: 25.1 µM [inhibitor, single point]"
15,COc1ccc(CN(CC(=O)NCC2CCCO2)C(=O)CCC(=O)Nc2nccs2)cc1 (centres undefined),inactive
16,O=c1cc(-c2ccccc2Cl)oc2c(NS(=O)(=O)c3ccccc3OC(F)(F)F)ccc(O)c12,"inconclusive: 5.62 µM [inhibitor, single point]"
17,COc1cccc(C=Nc2cccnc2)c1O,"inconclusive: 7.08 µM [inhibitor, partial curve]"
18,CN(C)c1nc(SCc2ccccc2Cl)nc2c1CCCC2,active: 7.94 µM
19,COCCCNC(=O)Cn1nnc(-c2ccc(NC(=O)c3ccccc3OC)cc2)n1,"inconclusive: 20 µM [inhibitor, single point]"
20,O=C(NCCCN1CCOCC1)c1ccc(Sc2ccccc2Cl)c([N+](=O)[O-])c1,inactive
21,O=C(O)c1ccc(N2C(=O)/C(=C/C=C/c3ccccc3)SC2=S)cc1,inactive
22,Cc1[nH]n(-c2cccc(Cl)c2)c(=O)c1/C=N/n1c(C)nc2ccccc2c1=O,"inconclusive: 35.5 µM [inhibitor, single point]"
23,Cc1ccc(OCc2nnc(N)s2)cc1C,inactive
24,CC(=O)Nc1ccc(N2C(C(C)=O)=NN(c3ccccc3)C2c2cccs2)cc1 (centres undefined),"inconclusive: 11.2 µM [inhibitor, partial curve]"
